The assay has as its target N-terminally FLAG-tagged HigC expressed in the context of the full HigBAC system (E. coli NT1F31). Briefly: affinity purification with mass spectrometry.

No constants are given. Whether binding was seen depends on the method and setting. Binding seen in cells or lysates may run through a third protein. Here binding means that the protein was enriched with, or labelled near, the bait; the list need not be complete.

B1: gpV major tail protein of phage λvir (wild type), made during infection (protein, UniProt P03733 1-246)
chain: MPVPNPTMPVKGAGTTLWVYKGSGDPYANPLSDVDWSRLAKVKDLTPGELTAESYDDSYLDDEDADWTATGQGQKSAGDTSFTLAWMPGEQGQQALLAWFNEGDTRAYKIRFPNGTVDVFRGWVSSIGKAVTAKEVITRTVKVTNVGRPSMAEDRSTVTAATGMTVTPASTSVVKGQSTTLTVAFQPEGVTDKSFRAVSADKTKATVSVSGMTITVNGVAAGKVNIPVVSGNGEFAAVAEITVTAS
Take B1: the binding entry was “binds”.
